14 molecules from PubChem BioAssay AID1487 (National Center for Advancing Translational Sciences (NCATS), 2009) can be followed below.

Several values for one entry are separate records, joined by “and”; a condition that tells them apart may be missing. Equal values may be shown once. The list shows a part of the results. Shown are side measurements of this screen, not its main read-out; they come without a call. Compounds called inactive in the main read-out are mostly missing here. The note in brackets gives the kind of curve behind each potency; many fits are weak.

The nature of this test: qHTS Assay for Modulators of Lamin A Splicing. The settings on record: HeLa LMNA splicing GFP/RFP minigene ratio, 48 h. A digest of the protocol:
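S3 HeLa stable clones carrying a lamin A-EGFP splicing minigene plus DsRed2 were seeded at 600 cells/well in Opti-MEM with 2% FBS, pin-dosed and incubated 48 h at 37°C. Acumen cytometry (488 nm) gave the GFP/RFP total-intensity ratio.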
In general terms: In qHTS, concentration-response curves come from the screen itself.

Where [1] appears, read: measured here: RFP viability control channel.
[2] abbreviates: measured here: GFP splicing reporter channel.

Usually AC50 stands for the midpoint of the concentration-response curve, whichever way the signal moves. Turning to `COc1ccc(/C=N/NC(=O)C(=O)/C=C2\NC3(CCCC3)Cc3ccccc32)cc1`, under setting [1], the AC50 is 22.4 µM [rising, partial curve].

On to `Cc1ccc(C2=NC(C(F)(F)F)(C(F)(F)F)c3c(n(-c4ccc(F)cc4)c(=O)[nH]c3=O)N2)cc1`, for which the AC50 under setting [1] is 35.5 µM [rising, single point].

With `CC1CCC(C(C)C)C(OC(=O)C[n+]2cc(-c3ccc(Cl)cc3)n3c2CCCCC3)C1` (centres undefined), the concentration at half-maximal activity (AC50) under setting [1] is 31.6 µM [rising, single point].

With `COc1cc(/C=N/OCC(=O)Nc2ccc(OC(F)F)cc2)ccc1OCc1ccccc1`, under setting [1], the AC50 was 35.5 µM [rising, single point].

With `CC(C)[C@H](NC(=O)c1ccccc1Cl)C(=O)Nc1nc(-c2ccccn2)cs1`, the AC50 under setting [2] was 35.5 µM [rising, single point].

As for `CCN(CCCCOC(=O)c1ccc(OC)c(OC)c1)[C@@H](C)Cc1ccc(OC)cc1`, the AC50 is 0.316 µM [falling, partial curve] under setting [2] and 0.000224 µM [rising, full curve, poor fit] under setting [1].

Consider `Cc1cc(=O)oc2c(O)c(O)ccc12`, for which the AC50 under setting [1] was 3.16 µM [rising, full curve].

In the case of `CCOc1ccc(C(=O)CC(NCc2cccs2)C(=O)O)cc1` (centres undefined), the AC50 under setting [1] is 12.6 µM [rising, partial curve].

As to `Cc1ccc(S(=O)(=O)N2CCN(CC(=O)NC3CCCc4ccccc43)CC2)c(C)c1` (centres undefined), the AC50 under setting [1] is 35.5 µM [rising, single point].

Take `O=C(N/N=C/c1nn(-c2ccccc2)cc1-c1ccccc1)c1ccncc1`: the half-maximal activity concentration (AC50) is 0.501 µM [rising, partial curve] under setting [2] and 8.91 µM [rising, partial curve] under setting [1].

Consider `CC(=O)Nc1nc(CCC(C)C)cc2c1c(=O)oc1ccccc12`, for which the AC50 under setting [2] is 2 µM [falling, partial curve, poor fit] and the AC50 under setting [1] was 0.0224 µM [falling, full curve, poor fit].

As for `CC(C)CC(=O)NC(NC(=S)Nc1sc2c(c1C#N)CCCC2)C(Cl)(Cl)Cl` (centres undefined), the AC50 under setting [1] was 14.1 µM [falling, single point].

With `COc1c(C)cc(C(=O)C2CCCN(C(=O)c3cc4nc(C)cc(C)n4n3)C2)cc1C` (centres undefined), the AC50 was 17.8 µM [falling, partial curve, poor fit] under setting [2] and 22.4 µM [falling, partial curve] under setting [1].

In the case of `CC(C)(C)c1ccc(C(O)CCCN2CCC(C(O)(c3ccccc3)c3ccccc3)CC2)cc1` (centres undefined), the AC50 under setting [2] was 12.6 µM [falling, partial curve, poor fit] and 14.1 µM [falling, partial curve, poor fit] and 8.91 µM [falling, partial curve, poor fit]; the AC50 under setting [1] is 1 µM [falling, partial curve, poor fit].
